Data: the supplement of paper PMC12819154, “High-throughput peptide-centric local stability assay extends protein–ligand identification to membrane proteins, tissues and bacteria” (Nature Structural & Molecular Biology, 2025)
This is one part of the list. Small differences around the control level are noise.

Chains of the proteins cited; added tags and fusions are not shown. Lines headed by an entry give the natural chain unless they say otherwise; changes in a name come on top.
UniProt P33173: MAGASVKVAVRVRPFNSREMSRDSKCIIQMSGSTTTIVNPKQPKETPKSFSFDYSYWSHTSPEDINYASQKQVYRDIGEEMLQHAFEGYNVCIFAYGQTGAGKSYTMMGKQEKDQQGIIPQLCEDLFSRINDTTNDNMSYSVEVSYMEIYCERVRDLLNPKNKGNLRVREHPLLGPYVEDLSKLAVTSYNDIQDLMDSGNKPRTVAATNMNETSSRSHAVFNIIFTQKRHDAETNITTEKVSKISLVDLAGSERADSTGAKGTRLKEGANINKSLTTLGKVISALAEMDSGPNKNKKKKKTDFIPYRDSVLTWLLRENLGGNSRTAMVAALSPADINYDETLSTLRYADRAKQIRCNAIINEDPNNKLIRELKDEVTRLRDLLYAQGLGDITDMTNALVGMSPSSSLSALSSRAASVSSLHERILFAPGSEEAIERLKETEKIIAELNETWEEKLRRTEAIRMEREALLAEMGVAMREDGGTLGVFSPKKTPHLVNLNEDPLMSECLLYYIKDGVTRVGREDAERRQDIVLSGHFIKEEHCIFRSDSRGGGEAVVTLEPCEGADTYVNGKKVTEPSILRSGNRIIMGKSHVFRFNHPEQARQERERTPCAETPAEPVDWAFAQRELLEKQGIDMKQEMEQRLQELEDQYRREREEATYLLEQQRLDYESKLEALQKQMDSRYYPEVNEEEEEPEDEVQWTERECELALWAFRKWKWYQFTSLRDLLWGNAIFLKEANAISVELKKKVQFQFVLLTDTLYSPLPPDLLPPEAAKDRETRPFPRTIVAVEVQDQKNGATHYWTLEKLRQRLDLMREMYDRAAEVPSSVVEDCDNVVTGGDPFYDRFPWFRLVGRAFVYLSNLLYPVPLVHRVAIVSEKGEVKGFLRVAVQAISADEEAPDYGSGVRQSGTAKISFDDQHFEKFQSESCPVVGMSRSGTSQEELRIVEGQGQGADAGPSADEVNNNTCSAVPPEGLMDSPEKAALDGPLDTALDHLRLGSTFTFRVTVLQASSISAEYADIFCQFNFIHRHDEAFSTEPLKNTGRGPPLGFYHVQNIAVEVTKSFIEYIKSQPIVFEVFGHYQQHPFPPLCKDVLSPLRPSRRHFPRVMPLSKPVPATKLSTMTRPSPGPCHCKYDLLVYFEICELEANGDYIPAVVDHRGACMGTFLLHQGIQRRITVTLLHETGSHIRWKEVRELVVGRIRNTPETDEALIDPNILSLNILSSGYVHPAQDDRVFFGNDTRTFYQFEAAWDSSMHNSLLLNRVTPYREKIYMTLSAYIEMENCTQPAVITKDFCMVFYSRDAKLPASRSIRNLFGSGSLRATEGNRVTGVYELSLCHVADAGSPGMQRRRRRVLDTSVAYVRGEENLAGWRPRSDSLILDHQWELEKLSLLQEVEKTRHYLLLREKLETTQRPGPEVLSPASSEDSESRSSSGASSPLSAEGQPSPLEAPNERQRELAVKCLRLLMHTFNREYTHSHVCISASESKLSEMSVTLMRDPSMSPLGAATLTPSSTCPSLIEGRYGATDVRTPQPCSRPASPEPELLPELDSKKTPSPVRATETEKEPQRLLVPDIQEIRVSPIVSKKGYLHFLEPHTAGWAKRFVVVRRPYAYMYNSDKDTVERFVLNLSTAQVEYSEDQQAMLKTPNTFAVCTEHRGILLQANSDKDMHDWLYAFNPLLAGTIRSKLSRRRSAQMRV
UniProt P28704: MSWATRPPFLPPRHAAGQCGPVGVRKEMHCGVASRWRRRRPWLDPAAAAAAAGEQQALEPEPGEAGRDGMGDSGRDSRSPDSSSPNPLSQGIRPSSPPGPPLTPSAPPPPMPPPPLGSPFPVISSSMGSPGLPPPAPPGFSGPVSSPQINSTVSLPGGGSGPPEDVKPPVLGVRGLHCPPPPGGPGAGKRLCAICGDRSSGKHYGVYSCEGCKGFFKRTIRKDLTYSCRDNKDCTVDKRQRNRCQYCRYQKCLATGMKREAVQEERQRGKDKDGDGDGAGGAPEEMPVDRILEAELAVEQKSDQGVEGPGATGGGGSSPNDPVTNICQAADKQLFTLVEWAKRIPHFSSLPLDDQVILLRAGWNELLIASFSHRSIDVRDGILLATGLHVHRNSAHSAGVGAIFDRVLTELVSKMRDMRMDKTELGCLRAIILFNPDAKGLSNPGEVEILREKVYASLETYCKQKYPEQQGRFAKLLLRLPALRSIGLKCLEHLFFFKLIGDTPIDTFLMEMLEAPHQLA
UniProt P26645: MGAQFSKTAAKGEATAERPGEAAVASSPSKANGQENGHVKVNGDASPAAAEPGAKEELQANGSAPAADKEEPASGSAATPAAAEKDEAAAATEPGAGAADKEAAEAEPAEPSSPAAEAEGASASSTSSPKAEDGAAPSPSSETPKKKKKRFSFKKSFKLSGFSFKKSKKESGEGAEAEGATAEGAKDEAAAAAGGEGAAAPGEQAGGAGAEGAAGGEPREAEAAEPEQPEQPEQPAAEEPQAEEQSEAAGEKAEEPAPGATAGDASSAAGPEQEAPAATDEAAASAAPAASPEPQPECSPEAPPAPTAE
UniProt P29595, whole entry: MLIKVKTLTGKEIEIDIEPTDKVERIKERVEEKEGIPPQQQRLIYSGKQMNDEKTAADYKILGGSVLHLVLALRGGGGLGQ
UniProt P28660: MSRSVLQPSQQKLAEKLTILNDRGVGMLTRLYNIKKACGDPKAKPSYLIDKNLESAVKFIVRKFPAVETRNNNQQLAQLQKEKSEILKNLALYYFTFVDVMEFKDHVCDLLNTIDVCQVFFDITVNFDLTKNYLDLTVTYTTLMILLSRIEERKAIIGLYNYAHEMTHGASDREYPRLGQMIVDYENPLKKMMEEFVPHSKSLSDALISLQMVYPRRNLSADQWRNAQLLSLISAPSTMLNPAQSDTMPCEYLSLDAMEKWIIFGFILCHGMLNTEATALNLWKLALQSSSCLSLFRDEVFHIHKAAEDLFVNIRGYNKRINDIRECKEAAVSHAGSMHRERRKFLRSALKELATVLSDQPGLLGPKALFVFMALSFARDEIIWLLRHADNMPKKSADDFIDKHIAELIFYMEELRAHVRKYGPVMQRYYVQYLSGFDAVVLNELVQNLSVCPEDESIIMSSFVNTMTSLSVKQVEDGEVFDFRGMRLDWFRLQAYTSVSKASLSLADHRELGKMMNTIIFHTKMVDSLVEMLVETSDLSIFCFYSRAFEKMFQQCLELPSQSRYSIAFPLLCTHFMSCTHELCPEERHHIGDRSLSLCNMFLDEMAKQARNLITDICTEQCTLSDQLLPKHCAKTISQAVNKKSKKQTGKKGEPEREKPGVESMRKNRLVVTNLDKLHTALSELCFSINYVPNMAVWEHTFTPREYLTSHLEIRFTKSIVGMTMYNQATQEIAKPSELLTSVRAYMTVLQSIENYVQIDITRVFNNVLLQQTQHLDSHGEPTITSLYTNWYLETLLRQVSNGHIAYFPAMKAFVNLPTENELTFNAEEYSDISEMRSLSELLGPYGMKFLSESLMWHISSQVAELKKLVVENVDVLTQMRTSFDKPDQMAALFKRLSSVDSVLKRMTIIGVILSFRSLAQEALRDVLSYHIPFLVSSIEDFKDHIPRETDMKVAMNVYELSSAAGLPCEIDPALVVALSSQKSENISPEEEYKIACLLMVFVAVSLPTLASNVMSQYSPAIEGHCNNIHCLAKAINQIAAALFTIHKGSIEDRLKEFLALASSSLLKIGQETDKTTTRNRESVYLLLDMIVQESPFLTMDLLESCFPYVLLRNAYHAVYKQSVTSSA
UniProt P21271, whole entry: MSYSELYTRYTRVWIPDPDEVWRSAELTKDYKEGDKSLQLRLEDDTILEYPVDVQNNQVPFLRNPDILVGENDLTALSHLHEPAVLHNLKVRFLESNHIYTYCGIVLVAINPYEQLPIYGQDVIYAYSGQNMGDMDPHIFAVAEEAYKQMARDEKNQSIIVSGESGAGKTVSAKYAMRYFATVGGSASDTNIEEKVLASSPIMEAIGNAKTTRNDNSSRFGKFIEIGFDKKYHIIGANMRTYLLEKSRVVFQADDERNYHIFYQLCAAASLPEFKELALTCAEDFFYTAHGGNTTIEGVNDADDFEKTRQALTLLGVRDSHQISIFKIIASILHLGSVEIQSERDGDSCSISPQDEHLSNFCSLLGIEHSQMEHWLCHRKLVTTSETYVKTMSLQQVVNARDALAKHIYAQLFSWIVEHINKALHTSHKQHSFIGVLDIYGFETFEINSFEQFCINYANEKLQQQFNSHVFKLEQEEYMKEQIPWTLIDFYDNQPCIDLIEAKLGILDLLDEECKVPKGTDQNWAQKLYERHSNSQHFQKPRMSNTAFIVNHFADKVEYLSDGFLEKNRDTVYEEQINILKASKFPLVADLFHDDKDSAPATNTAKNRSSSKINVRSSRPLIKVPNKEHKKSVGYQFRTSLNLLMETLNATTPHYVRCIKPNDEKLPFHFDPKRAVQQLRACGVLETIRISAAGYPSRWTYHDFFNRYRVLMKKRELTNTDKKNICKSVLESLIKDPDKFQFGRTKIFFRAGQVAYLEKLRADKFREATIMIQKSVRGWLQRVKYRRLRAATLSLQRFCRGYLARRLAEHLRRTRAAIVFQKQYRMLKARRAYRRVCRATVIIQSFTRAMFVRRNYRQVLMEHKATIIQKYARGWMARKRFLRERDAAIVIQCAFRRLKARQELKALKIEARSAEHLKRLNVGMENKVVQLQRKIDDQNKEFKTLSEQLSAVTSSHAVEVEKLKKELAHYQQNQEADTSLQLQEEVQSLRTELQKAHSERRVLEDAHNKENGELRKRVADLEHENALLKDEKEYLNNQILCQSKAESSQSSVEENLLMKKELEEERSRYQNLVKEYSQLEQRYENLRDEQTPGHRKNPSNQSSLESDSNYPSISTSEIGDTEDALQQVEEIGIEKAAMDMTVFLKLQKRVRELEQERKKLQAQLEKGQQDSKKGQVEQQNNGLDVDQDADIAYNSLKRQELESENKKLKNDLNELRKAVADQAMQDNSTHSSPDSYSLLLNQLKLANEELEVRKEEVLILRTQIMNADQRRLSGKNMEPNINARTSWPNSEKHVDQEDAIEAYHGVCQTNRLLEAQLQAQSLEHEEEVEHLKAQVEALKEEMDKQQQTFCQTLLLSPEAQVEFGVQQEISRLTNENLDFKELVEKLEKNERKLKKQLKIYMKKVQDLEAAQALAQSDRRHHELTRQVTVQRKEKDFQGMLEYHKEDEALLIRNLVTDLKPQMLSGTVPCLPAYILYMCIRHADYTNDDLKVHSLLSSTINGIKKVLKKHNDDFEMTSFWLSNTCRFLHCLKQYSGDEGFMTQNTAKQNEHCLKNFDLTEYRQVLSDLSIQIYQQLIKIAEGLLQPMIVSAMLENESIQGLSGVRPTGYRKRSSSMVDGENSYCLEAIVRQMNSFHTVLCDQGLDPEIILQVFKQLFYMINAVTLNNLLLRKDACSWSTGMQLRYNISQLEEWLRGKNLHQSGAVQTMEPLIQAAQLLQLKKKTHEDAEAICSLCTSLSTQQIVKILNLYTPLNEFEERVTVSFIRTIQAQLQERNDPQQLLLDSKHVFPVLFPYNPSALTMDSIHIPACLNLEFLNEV
UniProt P24369: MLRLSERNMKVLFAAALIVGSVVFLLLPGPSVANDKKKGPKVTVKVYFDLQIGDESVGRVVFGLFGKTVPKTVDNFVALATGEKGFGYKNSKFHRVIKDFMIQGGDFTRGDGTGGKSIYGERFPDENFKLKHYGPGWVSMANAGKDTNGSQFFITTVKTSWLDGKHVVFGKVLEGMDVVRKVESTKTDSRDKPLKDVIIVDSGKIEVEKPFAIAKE
UniProt P17141: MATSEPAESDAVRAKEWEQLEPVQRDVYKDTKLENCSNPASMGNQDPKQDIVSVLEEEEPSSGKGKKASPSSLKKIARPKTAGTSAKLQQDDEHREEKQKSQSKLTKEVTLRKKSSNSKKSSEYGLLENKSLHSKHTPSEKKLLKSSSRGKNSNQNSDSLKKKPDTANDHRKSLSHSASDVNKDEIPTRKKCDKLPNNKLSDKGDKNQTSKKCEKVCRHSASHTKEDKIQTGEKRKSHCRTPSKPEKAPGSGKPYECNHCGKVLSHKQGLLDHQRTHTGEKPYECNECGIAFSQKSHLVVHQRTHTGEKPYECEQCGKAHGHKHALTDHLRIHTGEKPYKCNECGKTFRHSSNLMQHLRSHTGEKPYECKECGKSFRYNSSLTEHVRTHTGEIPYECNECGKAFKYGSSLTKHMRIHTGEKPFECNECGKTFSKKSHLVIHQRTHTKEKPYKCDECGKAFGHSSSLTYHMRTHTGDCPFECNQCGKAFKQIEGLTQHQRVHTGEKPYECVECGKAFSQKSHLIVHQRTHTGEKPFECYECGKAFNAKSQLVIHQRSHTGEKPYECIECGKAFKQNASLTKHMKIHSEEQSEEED
UniProt P35292: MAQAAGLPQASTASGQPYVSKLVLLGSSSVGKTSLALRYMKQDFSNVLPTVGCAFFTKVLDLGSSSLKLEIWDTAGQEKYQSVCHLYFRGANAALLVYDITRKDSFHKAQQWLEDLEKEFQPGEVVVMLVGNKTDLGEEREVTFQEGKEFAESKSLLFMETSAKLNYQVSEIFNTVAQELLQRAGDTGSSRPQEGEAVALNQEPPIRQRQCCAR

Each target was assayed with CN[C@@H]1C[C@H]2O[C@@](C)([C@@H]1OC)n1c3ccccc3c3c4c(c5c6ccccc6n2c5c31)C(=O)NC4 [staurosporine] (assay: log2 fold change of tryptic peptide abundance, ligand vs vehicle (limited proteolysis) (log2 ratio); higher = more trypsin-susceptible (destabilized)). Conditions: ligand concentration: 20 uM; sample: mouse liver crude lysate; replicate design: treated separately.
“UniProt P33173 (peptide sequence: VREHPLLGPYVEDLSK, peptide start residue: 168)” gave a log2 fold change of 0.151.
For “UniProt P30355 (peptide sequence: AHNGRSFQR, peptide start residue: 36)”, the log2 fold change was -0.27.
In the case of “UniProt P28666 (peptide sequence: YASAEHVAYAVYSLSK, peptide start residue: 431)”, the log2 fold change is reported as -0.454.
“UniProt P24457 (peptide sequence: AKGNPESSFNDENLR, peptide start residue: 285)” showed a log2 fold change of -0.538.
In the case of “UniProt P28704 (peptide sequence: GKDKDGDGDGAGGAPEEMPVDR, peptide start residue: 269)”, the log2 fold change is reported as 1.01.
“UniProt P28076 (peptide sequence: AGAPTAGSFR, peptide start residue: 4)” showed a log2 fold change of -0.0084.
“UniProt P17156 (peptide sequence: MVSHLAEEFKR, peptide start residue: 240)” was tested, and the log2 fold change was 0.14.
Work on “UniProt P31254 (peptide sequence: MYPIDFEK, peptide start residue: 844)” yielded a log2 fold change of 0.294.
Work on “UniProt P26645 (peptide sequence: LSGFSFKK, peptide start residue: 159)” yielded a log2 fold change of 0.298.
Target “UniProt P29595 (peptide sequence: QMNDEKTAADYK, peptide start residue: 49)” has a log2 fold change of 0.176.
For “UniProt P19788 (peptide sequence: NANTFMSPQQR, peptide start residue: 39)”, the log2 fold change was 0.0989.
“UniProt P22366 (peptide sequence: ELETRPDPTR, peptide start residue: 63)” gave a log2 fold change of -0.271.
“UniProt P30416 (peptide sequence: LASHLNLAMCHLK, peptide start residue: 319)” gave a log2 fold change of 0.115.
Target “UniProt P28659 (peptide sequence: MFVGQVPR, peptide start residue: 18)” has a log2 fold change of 0.171.
“UniProt P28653 (peptide sequence: VPAGLPDLK, peptide start residue: 293)” was tested, and the log2 fold change was -0.316.
For “UniProt P28660 (peptide sequence: SVLQPSQQK, peptide start residue: 4)”, the log2 fold change was -0.575.
For “UniProt P29341 (peptide sequence: EFTNVYIK, peptide start residue: 189)”, the log2 fold change was 0.205.
Target “UniProt P17918 (peptide sequence: MPSGEFAR, peptide start residue: 139)” has a log2 fold change of 0.331.
In the case of “UniProt P32507 (peptide sequence: YHELPTLEER, peptide start residue: 445)”, the log2 fold change is reported as 0.0561.
In the case of “UniProt P25425 (peptide sequence: TSIETNIR, peptide start residue: 387)”, the log2 fold change is reported as -0.0817.
For “UniProt P19639 (peptide sequence: LLLEYTDSSYEEKR, peptide start residue: 19)”, the log2 fold change was -0.0616.
Target “UniProt P21271 (peptide sequence: QALTLLGVR, peptide start residue: 310)” has a log2 fold change of -0.76.
Target “UniProt P24369 (peptide sequence: DKPLKDVIIVDSGK, peptide start residue: 191)” has a log2 fold change of -0.268.
“UniProt P30285 (peptide sequence: VTLVFEHIDQDLR, peptide start residue: 89)” was tested, and the log2 fold change was 0.387.
“UniProt P16546 (peptide sequence: NNHHEENISSK, peptide start residue: 1940)” showed a log2 fold change of -0.756.
Work on “UniProt P17141 (peptide sequence: LQQDDEHREEK, peptide start residue: 88)” yielded a log2 fold change of -0.343.
Work on “UniProt P35295 (peptide sequence: QVQPEDAVALYKK, peptide start residue: 147)” yielded a log2 fold change of 0.151.
“UniProt P29699 (peptide sequence: QLTEHAVEGDCDFHILK, peptide start residue: 104)” showed a log2 fold change of -0.103.
“UniProt P18340 (peptide sequence: CSCISTSR, peptide start residue: 30)” gave a log2 fold change of 0.0131.
For “UniProt P30415 (peptide sequence: TTHLLPVQSTYSLTNIK, peptide start residue: 638)”, the log2 fold change was -0.276.
“UniProt P31651 (peptide sequence: QELIAWEKETHL, peptide start residue: 603)” gave a log2 fold change of -0.277.
“UniProt P23881 (peptide sequence: NAMTQEAIR, peptide start residue: 284)” gave a log2 fold change of 0.13.
In the case of “UniProt P25688 (peptide sequence: NTVHVLAK, peptide start residue: 73)”, the log2 fold change is reported as -0.273.
In the case of “UniProt P27048 (peptide sequence: HMNLILCDCDEFR, peptide start residue: 37)”, the log2 fold change is reported as -0.377.
With “UniProt P35278 (peptide sequence: KLPKNEPQNAAGAPGR, peptide start residue: 181)” the log2 fold change was -0.243.
In the case of “UniProt P35292 (peptide sequence: EVTFQEGKEFAESK, peptide start residue: 141)”, the log2 fold change is reported as -0.298.
“UniProt P28651 (peptide sequence: GSEHTVNFK, peptide start residue: 127)” gave a log2 fold change of 0.32.
Work on “UniProt P29391 (peptide sequence: MGNHLTNLR, peptide start residue: 145)” yielded a log2 fold change of -0.227.
Target “UniProt P28741 (peptide sequence: GVIPNSFAHIFGHIAK, peptide start residue: 121)” has a log2 fold change of -0.184.
